Data published in the supplement of paper PMC10849652.
Some of the results follow.

Amino acid sequences for entries named in this document (tags omitted). A change or cut given only in a name is not applied to a line headed by its entry.
UniProt P13693: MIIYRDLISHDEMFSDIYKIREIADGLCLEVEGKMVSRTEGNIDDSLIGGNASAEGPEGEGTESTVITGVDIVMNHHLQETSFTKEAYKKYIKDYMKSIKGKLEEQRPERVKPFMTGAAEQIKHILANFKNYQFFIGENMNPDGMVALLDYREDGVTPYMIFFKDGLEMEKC
UniProt Q14258, whole entry, looked up: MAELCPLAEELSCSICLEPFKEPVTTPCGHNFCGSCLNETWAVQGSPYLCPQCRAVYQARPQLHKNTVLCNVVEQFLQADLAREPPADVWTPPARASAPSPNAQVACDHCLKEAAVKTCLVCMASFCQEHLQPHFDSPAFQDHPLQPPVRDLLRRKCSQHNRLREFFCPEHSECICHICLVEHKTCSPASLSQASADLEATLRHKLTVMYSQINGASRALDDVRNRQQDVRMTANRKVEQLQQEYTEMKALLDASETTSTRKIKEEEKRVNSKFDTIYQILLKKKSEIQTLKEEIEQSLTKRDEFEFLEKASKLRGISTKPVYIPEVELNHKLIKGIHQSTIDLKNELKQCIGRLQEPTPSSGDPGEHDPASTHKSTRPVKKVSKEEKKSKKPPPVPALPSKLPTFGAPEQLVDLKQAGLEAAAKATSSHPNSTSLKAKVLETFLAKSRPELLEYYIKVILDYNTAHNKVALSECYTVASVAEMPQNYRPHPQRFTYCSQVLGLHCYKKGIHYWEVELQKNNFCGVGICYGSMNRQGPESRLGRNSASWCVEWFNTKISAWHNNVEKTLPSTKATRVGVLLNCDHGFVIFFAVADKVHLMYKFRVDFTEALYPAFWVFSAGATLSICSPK
UniProt Q12931: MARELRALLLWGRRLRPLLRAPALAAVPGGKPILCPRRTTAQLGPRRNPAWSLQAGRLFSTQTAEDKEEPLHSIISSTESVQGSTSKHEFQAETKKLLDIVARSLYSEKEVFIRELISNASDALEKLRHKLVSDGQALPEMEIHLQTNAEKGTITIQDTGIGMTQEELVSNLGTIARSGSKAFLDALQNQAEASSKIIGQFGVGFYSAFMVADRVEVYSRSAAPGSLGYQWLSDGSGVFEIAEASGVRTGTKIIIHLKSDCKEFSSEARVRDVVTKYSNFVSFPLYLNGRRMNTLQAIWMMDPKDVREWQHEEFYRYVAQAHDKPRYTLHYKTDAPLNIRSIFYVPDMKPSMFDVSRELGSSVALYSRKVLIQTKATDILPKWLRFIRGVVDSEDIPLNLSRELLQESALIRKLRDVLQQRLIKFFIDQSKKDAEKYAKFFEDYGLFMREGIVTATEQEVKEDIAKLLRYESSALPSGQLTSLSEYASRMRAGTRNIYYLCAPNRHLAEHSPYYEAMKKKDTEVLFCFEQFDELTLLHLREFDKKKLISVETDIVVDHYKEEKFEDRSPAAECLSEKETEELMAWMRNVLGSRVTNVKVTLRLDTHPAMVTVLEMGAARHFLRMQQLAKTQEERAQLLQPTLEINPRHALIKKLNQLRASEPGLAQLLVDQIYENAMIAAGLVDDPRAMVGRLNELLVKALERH
UniProt O96008: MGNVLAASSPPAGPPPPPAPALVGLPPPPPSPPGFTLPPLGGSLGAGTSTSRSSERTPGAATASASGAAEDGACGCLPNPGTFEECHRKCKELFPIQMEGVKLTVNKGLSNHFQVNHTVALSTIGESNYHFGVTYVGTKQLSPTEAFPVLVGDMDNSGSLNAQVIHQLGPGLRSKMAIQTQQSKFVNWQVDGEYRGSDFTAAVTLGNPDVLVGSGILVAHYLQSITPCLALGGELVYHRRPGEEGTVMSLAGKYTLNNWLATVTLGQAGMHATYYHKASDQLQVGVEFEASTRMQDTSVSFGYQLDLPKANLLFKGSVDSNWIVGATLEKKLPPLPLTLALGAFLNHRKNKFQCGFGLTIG
UniProt Q9NXH8: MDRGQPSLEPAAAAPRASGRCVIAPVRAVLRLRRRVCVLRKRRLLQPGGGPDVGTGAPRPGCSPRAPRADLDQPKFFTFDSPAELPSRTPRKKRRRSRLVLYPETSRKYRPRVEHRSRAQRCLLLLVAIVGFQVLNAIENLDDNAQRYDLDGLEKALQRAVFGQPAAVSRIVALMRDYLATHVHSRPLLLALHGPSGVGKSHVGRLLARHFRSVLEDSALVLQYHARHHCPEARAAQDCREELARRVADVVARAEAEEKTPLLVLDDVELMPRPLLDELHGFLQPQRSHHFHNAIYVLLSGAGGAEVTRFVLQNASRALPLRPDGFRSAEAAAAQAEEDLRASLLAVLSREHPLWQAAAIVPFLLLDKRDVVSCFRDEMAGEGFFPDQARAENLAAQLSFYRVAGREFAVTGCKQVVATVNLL
UniProt P11387: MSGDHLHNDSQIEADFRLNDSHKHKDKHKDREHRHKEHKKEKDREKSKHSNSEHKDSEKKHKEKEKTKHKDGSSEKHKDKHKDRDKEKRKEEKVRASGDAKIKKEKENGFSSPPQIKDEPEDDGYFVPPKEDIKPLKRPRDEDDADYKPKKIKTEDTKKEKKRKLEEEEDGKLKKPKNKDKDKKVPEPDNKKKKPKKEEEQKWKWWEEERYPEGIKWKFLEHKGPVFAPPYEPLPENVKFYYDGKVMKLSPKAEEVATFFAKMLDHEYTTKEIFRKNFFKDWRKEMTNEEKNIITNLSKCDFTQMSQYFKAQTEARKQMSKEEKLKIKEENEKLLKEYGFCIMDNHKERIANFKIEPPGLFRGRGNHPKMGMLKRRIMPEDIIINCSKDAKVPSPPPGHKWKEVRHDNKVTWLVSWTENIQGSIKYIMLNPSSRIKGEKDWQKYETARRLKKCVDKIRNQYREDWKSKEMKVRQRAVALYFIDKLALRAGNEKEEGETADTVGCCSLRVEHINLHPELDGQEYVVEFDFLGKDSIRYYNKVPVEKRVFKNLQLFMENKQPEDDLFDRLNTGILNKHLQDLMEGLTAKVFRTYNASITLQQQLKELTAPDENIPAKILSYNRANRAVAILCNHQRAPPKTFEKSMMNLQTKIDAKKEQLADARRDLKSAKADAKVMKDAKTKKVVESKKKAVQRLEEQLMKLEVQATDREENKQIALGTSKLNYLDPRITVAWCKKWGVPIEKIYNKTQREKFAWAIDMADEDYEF
UniProt Q9NS69: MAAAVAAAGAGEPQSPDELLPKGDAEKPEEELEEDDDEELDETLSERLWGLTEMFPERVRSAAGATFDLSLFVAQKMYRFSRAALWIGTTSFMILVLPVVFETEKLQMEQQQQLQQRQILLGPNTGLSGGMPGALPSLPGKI
UniProt Q96S44: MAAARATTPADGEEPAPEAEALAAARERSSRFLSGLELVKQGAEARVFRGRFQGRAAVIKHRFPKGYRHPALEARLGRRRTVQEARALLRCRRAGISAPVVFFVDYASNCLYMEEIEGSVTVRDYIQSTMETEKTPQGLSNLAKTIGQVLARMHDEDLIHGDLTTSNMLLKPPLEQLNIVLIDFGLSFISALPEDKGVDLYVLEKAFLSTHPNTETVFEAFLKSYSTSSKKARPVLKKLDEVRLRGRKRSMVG
UniProt Q9BUZ4: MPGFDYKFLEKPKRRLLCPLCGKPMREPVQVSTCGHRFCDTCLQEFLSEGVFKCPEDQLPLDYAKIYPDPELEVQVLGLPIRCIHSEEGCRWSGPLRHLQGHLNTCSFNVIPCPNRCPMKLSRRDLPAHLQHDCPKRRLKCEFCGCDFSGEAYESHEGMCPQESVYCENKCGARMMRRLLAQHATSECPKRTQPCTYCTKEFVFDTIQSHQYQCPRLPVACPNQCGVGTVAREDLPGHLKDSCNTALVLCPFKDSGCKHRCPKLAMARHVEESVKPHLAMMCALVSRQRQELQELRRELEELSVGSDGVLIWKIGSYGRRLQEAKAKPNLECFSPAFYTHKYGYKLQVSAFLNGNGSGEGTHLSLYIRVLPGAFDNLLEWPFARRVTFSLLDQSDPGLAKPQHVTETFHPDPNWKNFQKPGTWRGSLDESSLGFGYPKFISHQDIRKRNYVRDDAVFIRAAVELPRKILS
UniProt O75648: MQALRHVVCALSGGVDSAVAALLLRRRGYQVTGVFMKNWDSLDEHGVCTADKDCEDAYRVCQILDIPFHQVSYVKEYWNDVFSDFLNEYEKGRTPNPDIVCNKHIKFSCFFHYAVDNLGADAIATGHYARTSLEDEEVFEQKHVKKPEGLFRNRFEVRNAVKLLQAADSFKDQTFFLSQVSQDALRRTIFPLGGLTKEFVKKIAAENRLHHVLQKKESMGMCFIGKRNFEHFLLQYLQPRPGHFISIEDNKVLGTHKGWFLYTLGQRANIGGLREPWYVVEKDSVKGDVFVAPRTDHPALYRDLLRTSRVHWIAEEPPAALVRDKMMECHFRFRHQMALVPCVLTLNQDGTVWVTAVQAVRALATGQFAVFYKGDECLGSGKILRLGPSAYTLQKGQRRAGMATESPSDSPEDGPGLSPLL
UniProt Q9Y296, whole entry, looked up: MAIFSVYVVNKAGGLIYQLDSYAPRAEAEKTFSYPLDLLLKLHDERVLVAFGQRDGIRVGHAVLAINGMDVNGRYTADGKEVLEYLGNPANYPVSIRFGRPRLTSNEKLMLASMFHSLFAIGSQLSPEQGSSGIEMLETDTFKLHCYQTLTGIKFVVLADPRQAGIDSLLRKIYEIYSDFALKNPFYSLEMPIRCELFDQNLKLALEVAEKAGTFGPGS
UniProt Q9NUP7: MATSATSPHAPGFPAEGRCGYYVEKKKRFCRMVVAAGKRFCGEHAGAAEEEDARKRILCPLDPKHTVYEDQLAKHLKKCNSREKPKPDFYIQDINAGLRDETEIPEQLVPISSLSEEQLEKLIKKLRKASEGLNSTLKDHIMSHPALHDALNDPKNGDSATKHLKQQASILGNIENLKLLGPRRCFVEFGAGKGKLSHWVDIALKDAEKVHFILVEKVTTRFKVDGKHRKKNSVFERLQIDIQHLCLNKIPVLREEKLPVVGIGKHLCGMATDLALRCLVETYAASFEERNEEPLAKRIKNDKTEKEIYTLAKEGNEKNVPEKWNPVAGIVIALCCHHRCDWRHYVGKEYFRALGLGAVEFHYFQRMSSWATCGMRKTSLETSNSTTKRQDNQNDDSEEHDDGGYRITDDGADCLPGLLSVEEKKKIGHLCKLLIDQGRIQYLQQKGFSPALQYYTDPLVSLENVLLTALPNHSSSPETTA
UniProt Q12933: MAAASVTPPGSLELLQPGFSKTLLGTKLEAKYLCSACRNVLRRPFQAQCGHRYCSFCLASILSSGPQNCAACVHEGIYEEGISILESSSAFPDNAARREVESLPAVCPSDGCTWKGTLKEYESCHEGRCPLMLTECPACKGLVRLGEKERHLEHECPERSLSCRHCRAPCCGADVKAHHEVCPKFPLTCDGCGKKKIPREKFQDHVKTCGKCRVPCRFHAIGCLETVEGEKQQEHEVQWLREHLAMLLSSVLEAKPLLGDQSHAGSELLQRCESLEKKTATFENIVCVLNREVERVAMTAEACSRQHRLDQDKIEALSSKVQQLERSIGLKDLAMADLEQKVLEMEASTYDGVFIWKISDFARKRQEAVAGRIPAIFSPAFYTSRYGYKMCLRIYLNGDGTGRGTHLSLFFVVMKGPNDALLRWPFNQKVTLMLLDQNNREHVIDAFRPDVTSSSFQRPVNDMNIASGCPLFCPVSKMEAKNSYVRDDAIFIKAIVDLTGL

How the values were obtained:
Test in all cases: log2 fold change, soluble protein after heating vs DMSO (PISA); higher = thermal stabilisation; K562 cells, 10 uM, 30 min; active = over 0.2 and 3.5 SD of the protein, either way, in both replicates (recomputed)
saracatinib = compound: CN1CCN(CCOc2cc(OC3CCOCC3)c3c(Nc4c(Cl)ccc5c4OCO5)ncnc3c2)CC1 [saracatinib]
Procedure, shortened: (§1)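 K562 cells (2×10^6 cells/mL) were treated with 10 μM compound for 30 min, and aliquots were heated for 3 min over 48°C-58°C. Pooled aliquots were extracted in PBS with 0.5% NP-40 at 4°C, and the supernatant after 21,000xg for 90 min was measured by TMTpro 16plex LC-MS/MS with channel sums equalised. Reported thermal stability, relative to control samples and from duplicates, is a log2 fold change.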

sotrastaurin = compound: CN1CCN(c2nc(C3=C(c4c[nH]c5ccccc45)C(=O)NC3=O)c3ccccc3n2)CC1 [sotrastaurin]
Procedure, shortened: as §1

alvocidib = compound: CN1CC[C@H](c2c(O)cc(O)c3c(=O)cc(-c4ccccc4Cl)oc23)[C@H](O)C1 [alvocidib]
Procedure, shortened: as §1

Tubastatin A = compound: CN1CCc2c(c3ccccc3n2Cc2ccc(C(=O)NO)cc2)C1 [Tubastatin A]
Procedure, shortened: as §1

[1] = compound: CNC(=O)C1=CC=CC=C1NC2=NC(=NC=C2Cl)NC3=C(C=C(C=C3)N4CCOCC4)OC
Procedure, shortened: as §1

defactinib = compound: CNC(=O)c1ccc(Nc2ncc(C(F)(F)F)c(NCc3nccnc3N(C)S(C)(=O)=O)n2)cc1 [defactinib]
Procedure, shortened: as §1

rucaparib = compound: CNCc1ccc(-c2[nH]c3cc(F)cc4c3c2CCNC4=O)cc1 [rucaparib]
Procedure, shortened: as §1

[2] = compound: CNc1nc(-c2ccc3c(N)n[nH]c3c2)cc(N2C[C@@H](C(=O)NC3CCCCC3)CC[C@H]2C)n1
Procedure, shortened: as §1

encorafenib = compound: COC(=O)N[C@@H](C)CNc1nccc(-c2cn(C(C)C)nc2-c2cc(Cl)cc(NS(C)(=O)=O)c2F)n1 [encorafenib]
Procedure, shortened: as §1

[3] = compound: COC(=O)[C@H](CCSC)NC(=O)C1=C(C=C(C=C1)NC[C@H](CS)N)C2=CC=CC=C2
Procedure, shortened: as §1

[4] = compound: COC1=CC=C(C=C1)CN2C=CC3=C2C=C(C=C3)C(=O)NO
Procedure, shortened: as §1

filanesib = compound: CON(C)C(=O)N1N=C(c2cc(F)ccc2F)S[C@@]1(CCCN)c1ccccc1 [filanesib]
Procedure, shortened: as §1

zotarolimus = compound: CO[C@H]1C[C@@H]2CC[C@@H](C)[C@@](O)(O2)C(=O)C(=O)N2CCCC[C@H]2C(=O)O[C@H]([C@H](C)C[C@@H]2CC[C@H](n3cnnn3)[C@H](OC)C2)CC(=O)[C@H](C)/C=C(\C)[C@@H](O)[C@@H](OC)C(=O)[C@H](C)C[C@H](C)/C=C/C=C/C=C/1C [zotarolimus]
Procedure, shortened: as §1

idasanutlin = compound: COc1cc(C(=O)O)ccc1NC(=O)[C@@H]1N[C@@H](CC(C)(C)C)[C@](C#N)(c2ccc(Cl)cc2F)[C@H]1c1cccc(Cl)c1F [idasanutlin]
Procedure, shortened: as §1

alisertib = compound: COc1cc(Nc2ncc3c(n2)-c2ccc(Cl)cc2C(c2c(F)cccc2OC)=NC3)ccc1C(=O)O [alisertib]
Procedure, shortened: as §1

[5] = compound: COc1cc2nc(-c3cc(F)ccc3O)nc(N[C@@H]3CNC[C@H]3C(C)(C)O)c2cc1OC
Procedure, shortened: as §1

gefitinib = compound: COc1cc2ncnc(Nc3ccc(F)c(Cl)c3)c2cc1OCCCN1CCOCC1 [gefitinib]
Procedure, shortened: as §1

[6] = compound: COc1cccc2cc(-c3nc([C@H]4CC[C@H](C(=O)O)CC4)n4ncnc(N)c34)[nH]c12
Procedure, shortened: as §1

lapatinib = compound: CS(=O)(=O)CCNCc1ccc(-c2ccc3ncnc(Nc4ccc(OCc5cccc(F)c5)c(Cl)c4)c3c2)o1 [lapatinib]
Procedure, shortened: as §1

pictilisib = compound: CS(=O)(=O)N1CCN(Cc2cc3nc(-c4cccc5[nH]ncc45)nc(N4CCOCC4)c3s2)CC1 [pictilisib]
Procedure, shortened: as §1

Measured: log2 fold change

TPT1 (UniProt P13693)
inactive: saracatinib -0.013 | sotrastaurin -0.044 | alvocidib -0.049 | Tubastatin A 0.036 | [1] 0.032 | defactinib -0.069 | rucaparib 0.001 | [2] 0.042 | encorafenib -0.029 | [3] -0.015 | [4] 0.036 | filanesib -0.089 | zotarolimus 0.016 | idasanutlin -0.032 | alisertib 0.018 | [5] -0.016 | gefitinib -0.014 | [6] -0.014 | lapatinib 0.01 | pictilisib 0.036

TRIM25 (UniProt Q14258)
inactive: saracatinib -0.084 | sotrastaurin -0.112 | alvocidib 0.077 | Tubastatin A 0.027 | [1] 0.042 | defactinib 0.133 | rucaparib 0.33 | [2] 0.066 | encorafenib 0.144 | [3] -0.092 | [4] 0.004 | filanesib 0.353 | zotarolimus 0.06 | idasanutlin 0.127 | alisertib -0.016 | [5] 0.12 | gefitinib 0.033 | [6] -0.159 | lapatinib 0.043 | pictilisib -0.062

TRAP1 (UniProt Q12931)
inactive: saracatinib 0.03 | sotrastaurin 0.028 | alvocidib -0.018 | Tubastatin A -0.041 | [1] -0.003 | defactinib 0 | rucaparib -0.007 | [2] -0.022 | encorafenib -0.022 | [3] 0.019 | [4] 0.039 | filanesib -0.052 | zotarolimus -0.004 | idasanutlin -0.038 | alisertib -0.048 | [5] -0.022 | gefitinib 0.012 | [6] 0.073 | lapatinib -0.029 | pictilisib -0.005

TOMM40 (UniProt O96008)
inactive: saracatinib 0.049 | sotrastaurin 0.011 | alvocidib -0.026 | Tubastatin A -0.009 | [1] -0.013 | defactinib 0.007 | rucaparib -0.064 | [2] -0.021 | encorafenib 0.015 | [3] -0.008 | [4] 0.064 | filanesib -0.061 | zotarolimus 0 | idasanutlin -0.064 | alisertib -0.034 | [5] -0.027 | gefitinib 0.005 | [6] 0.056 | lapatinib 0.012 | pictilisib -0.055

TPRKB (UniProt Q9Y3C4)
inactive: saracatinib 0.022 | sotrastaurin 0.001 | alvocidib -0.043 | Tubastatin A 0.03 | [1] -0.024 | defactinib -0.036 | rucaparib -0.006 | [2] -0.019 | encorafenib 0.031 | [3] -0.015 | [4] -0.001 | filanesib 0.003 | zotarolimus -0.066 | idasanutlin -0.046 | alisertib -0.019 | [5] -0.008 | gefitinib 0.014 | [6] 0.06 | lapatinib -0.078 | pictilisib -0.028

TOR4A (UniProt Q9NXH8)
inactive: saracatinib -0.095 | sotrastaurin -0.151 | alvocidib 0.116 | Tubastatin A 0.057 | [1] 0.018 | defactinib 0.032 | rucaparib 0.16 | [2] 0.141 | encorafenib 0.064 | [3] -0.073 | [4] 0.106 | filanesib 0.129 | zotarolimus 0.053 | idasanutlin 0.05 | alisertib -0.174 | [5] 0.009 | gefitinib 0.018 | [6] -0.076 | lapatinib 0.106 | pictilisib 0.009

TOP1 (UniProt P11387)
inactive: saracatinib -0.105 | sotrastaurin -0.053 | alvocidib 0.259 | Tubastatin A 0.026 | [1] 0.018 | defactinib 0.26 | rucaparib 0.421 | [2] 0.223 | encorafenib 0.224 | [3] 0.017 | [4] 0 | filanesib 0.247 | zotarolimus 0.112 | idasanutlin 0.15 | alisertib -0.065 | [5] 0.019 | gefitinib -0.098 | [6] -0.103 | lapatinib 0.038 | pictilisib -0.135

TOMM22 (UniProt Q9NS69)
inactive: saracatinib 0.073 | sotrastaurin 0.016 | alvocidib 0.03 | Tubastatin A -0.039 | [1] -0.018 | defactinib -0.053 | rucaparib -0.044 | [2] -0.045 | encorafenib -0.007 | [3] 0.02 | [4] -0.021 | filanesib 0.042 | zotarolimus 0.064 | idasanutlin 0.06 | alisertib -0.049 | [5] -0.106 | gefitinib 0.063 | [6] 0.056 | lapatinib -0.026 | pictilisib 0.025

TP53RK (UniProt Q96S44)
inactive: saracatinib 0.008 | sotrastaurin 0.029 | alvocidib -0.018 | Tubastatin A -0.025 | [1] -0.013 | defactinib 0.028 | rucaparib -0.028 | [2] -0.027 | encorafenib 0.018 | [3] -0.011 | [4] 0.03 | filanesib 0.011 | zotarolimus -0.001 | idasanutlin -0.047 | alisertib -0.014 | [5] 0.011 | gefitinib 0.006 | [6] 0.022 | lapatinib -0.005 | pictilisib 0.048

TRMT112 (UniProt Q9UI30)
inactive: saracatinib -0.073 | sotrastaurin 0.019 | alvocidib -0.043 | Tubastatin A -0.05 | [1] -0.03 | defactinib -0.116 | rucaparib 0.016 | [2] 0.016 | encorafenib -0.029 | [3] -0.073 | [4] -0.05 | filanesib 0.1 | zotarolimus 0.07 | idasanutlin -0.011 | alisertib -0.082 | [5] -0.024 | gefitinib 0.031 | [6] 0.006 | lapatinib -0.049 | pictilisib 0.055

TRAF4 (UniProt Q9BUZ4)
inactive: saracatinib -0.09 | sotrastaurin 0 | alvocidib 0.058 | Tubastatin A -0.011 | [1] 0.102 | defactinib 0.098 | rucaparib 0.173 | [2] -0.007 | encorafenib -0.039 | [3] 0.137 | [4] 0.143 | filanesib 0.036 | zotarolimus -0.043 | idasanutlin 0.079 | alisertib -0.022 | [5] 0.018 | gefitinib -0.013 | [6] -0.056 | lapatinib -0.004 | pictilisib -0.069

TRMU (UniProt O75648)
inactive: saracatinib -0.033 | sotrastaurin 0.01 | alvocidib -0.087 | Tubastatin A 0.002 | [1] 0.032 | defactinib -0.146 | rucaparib 0.045 | [2] 0.005 | encorafenib 0.07 | [3] -0.017 | [4] -0.082 | filanesib 0.003 | zotarolimus 0.053 | idasanutlin -0.036 | alisertib 0.015 | [5] 0.045 | gefitinib -0.008 | [6] 0.003 | lapatinib -0.038 | pictilisib 0.008

TRAPPC4 (UniProt Q9Y296)
inactive: saracatinib 0.071 | sotrastaurin 0.006 | alvocidib -0.017 | Tubastatin A -0.027 | [1] 0.002 | defactinib -0.031 | rucaparib -0.063 | [2] -0.039 | encorafenib -0.022 | [3] 0.02 | [4] -0.041 | filanesib -0.013 | zotarolimus 0.01 | idasanutlin -0.009 | alisertib -0.049 | [5] 0.015 | gefitinib 0.017 | [6] 0.015 | lapatinib -0.012 | pictilisib -0.036

TRMT13 (UniProt Q9NUP7)
inactive: saracatinib 0.045 | sotrastaurin -0.05 | alvocidib -0.096 | Tubastatin A 0.007 | [1] 0.005 | defactinib -0.103 | rucaparib -0.038 | [2] -0.072 | encorafenib 0.041 | [3] 0.001 | [4] -0.022 | filanesib -0.035 | zotarolimus 0.051 | idasanutlin -0.061 | alisertib 0.032 | [5] 0.031 | gefitinib -0.015 | [6] -0.036 | lapatinib 0.036 | pictilisib 0.054

TPP2 (UniProt Q5VZU9)
inactive: saracatinib -0.33 | sotrastaurin -0.155 | alvocidib 0.109 | Tubastatin A 0.294 | [1] -0.018 | defactinib 0.327 | rucaparib 0.315 | [2] 0.134 | encorafenib 0.167 | [3] -0.118 | [4] 0.203 | filanesib 0.109 | zotarolimus 0.026 | idasanutlin 0.305 | alisertib -0.056 | [5] 0.107 | gefitinib -0.036 | [6] -0.188 | lapatinib -0.06

Copied from the listing (2 entries):
TRMT13 (UniProt Q9NUP7)
inactive: saracatinib 0.045 | sotrastaurin -0.05 | alvocidib -0.096 | Tubastatin A 0.007 | [1] 0.005 | defactinib -0.103 | rucaparib -0.038 | [2] -0.072 | encorafenib 0.041 | [3] 0.001 | [4] -0.022 | filanesib -0.035 | zotarolimus 0.051 | idasanutlin -0.061 | alisertib 0.032 | [5] 0.031 | gefitinib -0.015 | [6] -0.036 | lapatinib 0.036 | pictilisib 0.054

TPP2 (UniProt Q5VZU9)
inactive: saracatinib -0.33 | sotrastaurin -0.155 | alvocidib 0.109 | Tubastatin A 0.294 | [1] -0.018 | defactinib 0.327 | rucaparib 0.315 | [2] 0.134 | encorafenib 0.167 | [3] -0.118 | [4] 0.203 | filanesib 0.109 | zotarolimus 0.026 | idasanutlin 0.305 | alisertib -0.056 | [5] 0.107 | gefitinib -0.036 | [6] -0.188 | lapatinib -0.06

(further entries)

TRAF2 (UniProt Q12933)
inactive: saracatinib 0.011 | sotrastaurin 0.009 | alvocidib -0.01 | Tubastatin A -0.013 | [1] 0.019 | defactinib -0.021 | rucaparib -0.095 | [2] -0.004 | encorafenib -0.037 | [3] -0.014 | [4] 0.015 | filanesib -0.026 | zotarolimus 0.015 | idasanutlin -0.027 | alisertib 0.013 | [5] 0.044 | gefitinib 0.042 | [6] 0.023 | lapatinib -0.009 | pictilisib 0.04
